Assay results as given in doi:10.1101/197186 (bioRxiv, 2017).
No constants are given. Whether binding was seen depends on the method and setting.

Sequences of proteins named here, by UniProt entry; tags and fusion partners are left off. A change or cut given only in a name is not applied to a line headed by its entry.
UniProt Q9Y6X9, whole entry, looked up, stated change not applied: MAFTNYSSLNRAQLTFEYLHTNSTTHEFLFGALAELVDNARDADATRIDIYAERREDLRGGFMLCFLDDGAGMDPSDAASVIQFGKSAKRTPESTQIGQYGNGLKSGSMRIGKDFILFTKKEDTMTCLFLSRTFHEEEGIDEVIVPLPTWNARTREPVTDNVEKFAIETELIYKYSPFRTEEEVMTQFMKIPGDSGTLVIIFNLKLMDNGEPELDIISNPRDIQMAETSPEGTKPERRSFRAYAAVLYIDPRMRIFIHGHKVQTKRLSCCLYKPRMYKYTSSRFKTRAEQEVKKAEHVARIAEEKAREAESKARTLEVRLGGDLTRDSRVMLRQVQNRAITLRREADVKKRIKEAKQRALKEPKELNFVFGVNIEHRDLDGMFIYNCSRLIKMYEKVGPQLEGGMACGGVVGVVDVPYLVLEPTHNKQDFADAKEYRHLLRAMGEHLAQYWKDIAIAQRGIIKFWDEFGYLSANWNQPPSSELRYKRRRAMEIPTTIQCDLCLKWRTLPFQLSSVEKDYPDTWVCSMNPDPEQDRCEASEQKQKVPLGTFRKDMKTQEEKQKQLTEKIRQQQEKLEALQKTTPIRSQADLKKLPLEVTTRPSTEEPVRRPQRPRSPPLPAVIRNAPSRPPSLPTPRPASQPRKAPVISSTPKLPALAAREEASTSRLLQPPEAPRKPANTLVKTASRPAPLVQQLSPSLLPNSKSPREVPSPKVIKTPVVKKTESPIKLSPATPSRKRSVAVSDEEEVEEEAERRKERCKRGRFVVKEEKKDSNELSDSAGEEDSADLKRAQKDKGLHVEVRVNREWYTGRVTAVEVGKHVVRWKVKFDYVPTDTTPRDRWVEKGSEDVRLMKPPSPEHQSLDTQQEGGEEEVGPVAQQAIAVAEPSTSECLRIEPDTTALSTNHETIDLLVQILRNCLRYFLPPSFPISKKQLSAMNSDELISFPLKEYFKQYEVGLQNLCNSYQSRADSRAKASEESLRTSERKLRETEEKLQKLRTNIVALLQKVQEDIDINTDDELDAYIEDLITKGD

Assays:
[1] = molecular target: human MORC2(1-603) N39A (human) (UniProt Q9Y6X9); test: SEC
[2] = molecular target: human MORC2(1-603) Y18A (human) (UniProt Q9Y6X9); test: differential scanning fluorimetry

In the case of “human MORC2(1-603) N39A (from UniProt Q9Y6X9 1-603) (domain or fragment)”, the binding [1] is reported as “no binding”.
With “human MORC2(1-603) Y18A (from UniProt Q9Y6X9 1-603) (domain or fragment)” the binding [2] was “no binding”.
